Laboratory results reported in PMC10796087.
Results are given in words; binding and its absence hold for the method and conditions named. In cells and extracts the contact can be indirect. Some results given as binding are weak or reduced against the parent protein; the word gives no strength.

Amino acid sequences for entries named in this document (tags omitted).
UniProt Q96KQ7: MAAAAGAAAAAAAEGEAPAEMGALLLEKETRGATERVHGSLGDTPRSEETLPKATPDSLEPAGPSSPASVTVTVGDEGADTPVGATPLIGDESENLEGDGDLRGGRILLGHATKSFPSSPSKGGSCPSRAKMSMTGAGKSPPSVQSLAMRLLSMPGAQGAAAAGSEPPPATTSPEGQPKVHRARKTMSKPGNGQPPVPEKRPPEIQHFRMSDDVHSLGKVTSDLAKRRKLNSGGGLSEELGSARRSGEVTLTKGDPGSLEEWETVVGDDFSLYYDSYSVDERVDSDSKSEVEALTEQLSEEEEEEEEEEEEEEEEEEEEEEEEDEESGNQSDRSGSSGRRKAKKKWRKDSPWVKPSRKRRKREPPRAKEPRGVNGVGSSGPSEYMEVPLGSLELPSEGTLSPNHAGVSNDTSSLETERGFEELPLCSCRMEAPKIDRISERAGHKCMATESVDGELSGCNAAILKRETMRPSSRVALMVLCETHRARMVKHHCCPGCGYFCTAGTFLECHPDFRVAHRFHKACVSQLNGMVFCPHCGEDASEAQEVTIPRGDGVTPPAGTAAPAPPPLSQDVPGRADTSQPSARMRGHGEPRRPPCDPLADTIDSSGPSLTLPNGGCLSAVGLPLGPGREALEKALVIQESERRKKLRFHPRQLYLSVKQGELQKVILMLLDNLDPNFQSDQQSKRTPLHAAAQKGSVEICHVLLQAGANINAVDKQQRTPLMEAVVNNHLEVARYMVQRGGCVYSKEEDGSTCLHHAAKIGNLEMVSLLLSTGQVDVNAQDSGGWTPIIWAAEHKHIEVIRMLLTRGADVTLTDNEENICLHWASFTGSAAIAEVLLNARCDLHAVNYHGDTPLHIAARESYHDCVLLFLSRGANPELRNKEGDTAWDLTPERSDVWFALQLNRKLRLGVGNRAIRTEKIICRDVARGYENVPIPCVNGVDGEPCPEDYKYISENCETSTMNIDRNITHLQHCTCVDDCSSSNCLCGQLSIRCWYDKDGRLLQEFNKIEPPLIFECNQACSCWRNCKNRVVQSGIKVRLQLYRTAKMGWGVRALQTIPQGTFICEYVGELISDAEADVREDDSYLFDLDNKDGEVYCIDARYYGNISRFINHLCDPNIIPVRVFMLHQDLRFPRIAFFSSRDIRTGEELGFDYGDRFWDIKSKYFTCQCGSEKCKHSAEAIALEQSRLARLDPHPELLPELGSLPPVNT
UniProt P60983: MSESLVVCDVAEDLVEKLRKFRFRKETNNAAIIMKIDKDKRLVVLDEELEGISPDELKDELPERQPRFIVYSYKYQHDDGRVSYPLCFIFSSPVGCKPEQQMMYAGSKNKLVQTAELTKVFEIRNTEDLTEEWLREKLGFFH

Target: Flag-tagged human G9a (human) (UniProt Q96KQ7)
Assay: co-IP; HEK 293T cells transfected with Flag-G9a or empty vector; lysed in IP buffer (25 mM tris-HCl pH 7.4, 150 mM NaCl, 5% glycerol, 1 mM EDTA, 1% NP-40); Flag resin, 4°C, 4 hours or overnight; western blot

binding: binds
Substance: glia maturation factor β (GMFB) (from UniProt P60983 1-142)
